Like-named read-outs stand apart in the source and are kept apart here. Further values from the same series stand in other lists.
System: Cobb broiler breeder hens and roosters
Type: in vivo

N[C@@H](Cc1cc(I)c(Oc2cc(I)c(O)c(I)c2)c(I)c1)C(=O)O [L-thyroxine, 3,5,3′,5′-tetraiodothyronine]
# Eggs per pen (25 ppm feed from 22-Sep, pen 50, 5-Nov): 0
# Eggs per pen (25 ppm feed from 22-Sep, pen 50, 6-Nov): 0
# Eggs per pen (25 ppm feed from 22-Sep, pen 50, 7-Nov): 0
# Eggs per pen (25 ppm feed from 22-Sep, pen 50, 13-Sep): 20
# Eggs per pen (25 ppm feed from 22-Sep, pen 50, 14-Sep): 16
# Eggs per pen (25 ppm feed from 22-Sep, pen 50, 15-Sep): 11
# Eggs per pen (40 ppm feed from 22-Sep, pen 51, 5-Nov): 5
# Eggs per pen (40 ppm feed from 22-Sep, pen 51, 6-Nov): 4
# Eggs per pen (40 ppm feed from 22-Sep, pen 51, 7-Nov): 4
# Eggs per pen (40 ppm feed from 22-Sep, pen 51, 13-Sep): 16
# Eggs per pen (40 ppm feed from 22-Sep, pen 51, 14-Sep): 21
# Eggs per pen (40 ppm feed from 22-Sep, pen 51, 15-Sep): 15
